Experimental findings from PMC11379720 are described below.

Chains of the proteins cited; added tags and fusions are not shown.
UniProt Q96PU5: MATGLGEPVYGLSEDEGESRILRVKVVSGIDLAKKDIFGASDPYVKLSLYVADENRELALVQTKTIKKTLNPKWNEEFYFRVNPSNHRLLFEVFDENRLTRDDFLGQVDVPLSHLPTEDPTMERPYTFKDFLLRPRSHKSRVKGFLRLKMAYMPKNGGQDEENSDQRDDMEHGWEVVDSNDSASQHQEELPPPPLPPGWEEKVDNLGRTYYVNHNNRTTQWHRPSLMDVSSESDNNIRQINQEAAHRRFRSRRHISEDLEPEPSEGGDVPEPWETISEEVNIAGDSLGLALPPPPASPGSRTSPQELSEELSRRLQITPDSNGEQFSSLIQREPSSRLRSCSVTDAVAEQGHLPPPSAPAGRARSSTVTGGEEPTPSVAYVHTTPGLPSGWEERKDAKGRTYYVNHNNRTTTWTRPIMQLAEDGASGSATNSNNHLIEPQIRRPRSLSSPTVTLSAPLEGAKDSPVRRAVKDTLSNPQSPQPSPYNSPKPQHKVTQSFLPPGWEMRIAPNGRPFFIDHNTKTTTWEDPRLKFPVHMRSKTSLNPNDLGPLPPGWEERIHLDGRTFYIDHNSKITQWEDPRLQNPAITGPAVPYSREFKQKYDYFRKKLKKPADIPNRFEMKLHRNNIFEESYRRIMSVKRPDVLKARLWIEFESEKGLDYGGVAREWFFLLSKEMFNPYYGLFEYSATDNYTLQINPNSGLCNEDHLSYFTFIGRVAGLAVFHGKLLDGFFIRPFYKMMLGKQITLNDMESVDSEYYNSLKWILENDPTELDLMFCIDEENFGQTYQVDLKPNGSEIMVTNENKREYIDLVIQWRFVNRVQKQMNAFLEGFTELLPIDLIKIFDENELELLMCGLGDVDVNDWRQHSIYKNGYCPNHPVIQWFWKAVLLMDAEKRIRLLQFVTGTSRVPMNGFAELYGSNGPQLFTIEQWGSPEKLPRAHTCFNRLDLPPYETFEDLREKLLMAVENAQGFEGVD

The target of this assay is NEDD4L (human (endogenous in Ishikawa)) (UniProt Q96PU5). Kind of assay: co-IP; lysates of Ishikawa cells infected with Lv-CTL or Lv-RAB17, immunoprecipitated with the indicated primary antibody and immunoblotted as indicated.

Results are given in words; binding and its absence hold for the method and conditions named. In cells and extracts the contact can be indirect.

B1: RAB17 overexpressed from lentivirus (Lv-RAB17) (protein, UniProt Q9H0T7 1-212)
chain: MAQAHRTPQPRAAPSQPRVFKLVLLGSGSVGKSSLALRYVKNDFKSILPTVGCAFFTKVVDVGATSLKLEIWDTAGQEKYHSVCHLYFRGANAALLVYDITRKDSFLKAQQWLKDLEEELHPGEVLVMLVGNKTDLSQEREVTFQEGKEFADSQKLLFMETSAKLNHQVSEVFNTVAQELLQRSDEEGQALRGDAAVALNKGPARQAKCCAH
For B1, the binding result is recorded as “no binding”.
